Results are given in words; binding and its absence hold for the method and conditions named. Binding seen in cells or lysates may run through a third protein.
Biological target: BRS1-GFP (Arabidopsis) (UniProt Q9M099)
Assay: pull-down; BRS1-GFP pull-down, proteins identified listed in Table S2; no methods given

Protein sequences, listed by entry. Tags and fused reporters are not part of them. Lines headed by an entry give the natural chain unless they say otherwise; changes in a name come on top.
UniProt Q9M099: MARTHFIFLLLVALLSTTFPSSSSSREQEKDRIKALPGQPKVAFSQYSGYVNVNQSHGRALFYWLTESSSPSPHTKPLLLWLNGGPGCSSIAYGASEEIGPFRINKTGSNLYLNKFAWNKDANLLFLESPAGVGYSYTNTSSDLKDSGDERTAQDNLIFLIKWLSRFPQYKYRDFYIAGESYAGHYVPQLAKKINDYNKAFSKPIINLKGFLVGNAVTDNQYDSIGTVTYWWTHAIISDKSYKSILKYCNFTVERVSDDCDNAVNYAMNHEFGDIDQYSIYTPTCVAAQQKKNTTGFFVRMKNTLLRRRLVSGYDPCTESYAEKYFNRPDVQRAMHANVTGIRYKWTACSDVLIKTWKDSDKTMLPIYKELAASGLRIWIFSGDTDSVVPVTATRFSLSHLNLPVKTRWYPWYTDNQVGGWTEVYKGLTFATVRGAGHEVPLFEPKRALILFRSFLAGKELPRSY
UniProt Q9SRZ6: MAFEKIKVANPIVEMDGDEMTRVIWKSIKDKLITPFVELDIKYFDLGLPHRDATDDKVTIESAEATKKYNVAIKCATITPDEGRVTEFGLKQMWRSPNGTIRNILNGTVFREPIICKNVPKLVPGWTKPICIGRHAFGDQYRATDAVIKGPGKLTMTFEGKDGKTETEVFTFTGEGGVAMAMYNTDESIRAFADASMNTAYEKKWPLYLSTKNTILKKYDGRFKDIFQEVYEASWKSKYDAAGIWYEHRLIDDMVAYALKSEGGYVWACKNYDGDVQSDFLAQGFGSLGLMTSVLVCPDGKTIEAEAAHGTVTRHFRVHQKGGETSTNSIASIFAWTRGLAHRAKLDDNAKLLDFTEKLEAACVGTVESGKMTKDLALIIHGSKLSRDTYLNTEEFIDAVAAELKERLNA

## cytosolic NADP+-dependent isocitrate dehydrogenase (cICDH), as looked for in the BRS1-GFP pull-down (from UniProt Q9SRZ6 1-410) (enzyme)
  binding: no binding

Source: paper PMC8193866
